By UniProt entry, the sequences of proteins in these tests, tags left out. Where a name states a change or a piece, a line headed by the entry shows the natural chain unless it says otherwise. Chains listed by the source or under a name are the forms on record and can include a tag or linker.
UniProt P60520: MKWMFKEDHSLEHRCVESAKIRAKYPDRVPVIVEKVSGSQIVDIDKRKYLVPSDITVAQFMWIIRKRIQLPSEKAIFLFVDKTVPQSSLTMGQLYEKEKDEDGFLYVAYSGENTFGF
HA‐GABARAP‐L2 S87/88A (P60520, form named): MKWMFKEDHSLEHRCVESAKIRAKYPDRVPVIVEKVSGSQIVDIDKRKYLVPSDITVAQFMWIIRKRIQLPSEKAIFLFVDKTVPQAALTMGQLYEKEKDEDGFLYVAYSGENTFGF
HA‐GABARAP‐L2 S87/88D (P60520, form named): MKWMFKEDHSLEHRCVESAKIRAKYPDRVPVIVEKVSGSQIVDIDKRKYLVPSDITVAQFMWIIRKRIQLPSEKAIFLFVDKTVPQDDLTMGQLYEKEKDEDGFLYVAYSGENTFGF
UniProt Q9UHD2: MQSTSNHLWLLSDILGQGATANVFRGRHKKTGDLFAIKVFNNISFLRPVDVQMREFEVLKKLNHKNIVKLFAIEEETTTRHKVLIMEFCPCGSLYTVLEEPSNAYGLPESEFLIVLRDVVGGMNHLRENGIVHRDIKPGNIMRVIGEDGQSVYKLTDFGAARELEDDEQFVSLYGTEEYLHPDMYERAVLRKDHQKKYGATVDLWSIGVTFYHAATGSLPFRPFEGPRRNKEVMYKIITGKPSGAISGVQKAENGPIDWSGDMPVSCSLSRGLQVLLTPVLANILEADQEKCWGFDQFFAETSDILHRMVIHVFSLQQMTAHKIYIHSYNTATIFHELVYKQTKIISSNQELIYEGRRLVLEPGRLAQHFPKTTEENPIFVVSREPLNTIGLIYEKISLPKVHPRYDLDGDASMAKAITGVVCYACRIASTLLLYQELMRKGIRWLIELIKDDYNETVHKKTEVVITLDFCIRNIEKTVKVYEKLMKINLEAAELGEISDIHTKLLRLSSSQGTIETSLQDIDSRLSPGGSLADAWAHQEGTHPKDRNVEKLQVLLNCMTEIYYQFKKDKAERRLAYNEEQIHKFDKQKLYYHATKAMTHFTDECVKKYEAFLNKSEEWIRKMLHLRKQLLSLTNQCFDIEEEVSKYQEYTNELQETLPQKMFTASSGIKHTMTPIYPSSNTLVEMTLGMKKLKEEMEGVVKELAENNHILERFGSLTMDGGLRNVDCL

In paper PMC6945063 (2019):

Columns and labels:
Experiment in all cases: affinity purification with mass spectrometry; HEK293T transfected with HA‐GABARAP‐L2 WT, S87/88A or S87/88D or control plasmid; HA immunoprecipitation in IP Lysis Buffer; label-free quantification against an HA-only IP
[1] = target: HA‐GABARAP‐L2 S87/88A (human) (UniProt P60520)
[2] = target: HA‐GABARAP‐L2 S87/88D (human) (UniProt P60520)
[3] = target: HA‐GABARAP‐L2 WT (human) (UniProt P60520)

Measured: binding

Endogenous TBK1 (from UniProt Q9UHD2 1-729) (enzyme)
binds: all assays above

These are yes or no findings as the source states them, for the method shown. Binding seen in cells or lysates may run through a third protein. A yes stands for co-enrichment or nearness to the bait. Other partners may have been found.
